PubChem BioAssay AID1053208 – Peter MacCallum Cancer Centre – 2014

Purpose: 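Synthetic lethal interactions between gene loss and doxorubicin in osteosarcoma cells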 (primary screen)
Cell system: mouse osteosarcoma cells, early-passage culture from an engineered mouse model of fibroblastic bone tumour
Knock-down reagent: siRNA pool against mouse genes, 40 nM
Time to read-out: about 120 h (48 h before drug, then 72 h with drug)
Challenge: doxorubicin 100 nM for 72 h, roughly 30-40% inhibitory dose
Detection: 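Viability read as ATP luminescence after 72 h of 100 nM doxorubicin or none, duplicate wells averaged, scaled to non-targeting siRNA, then expressed as robust z-scores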
Direction: viability z-score with doxorubicin: higher = more viable cells under doxorubicin; viability z-score without drug: higher = more viable cells with knock-down alone
Hit rule: 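Called active if knock-down leaves viability unchanged without drug (z within -2 to 2) but lowers it with doxorubicin (z at or under -2)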
The whole screen tested about 17,000 reagents; shown is a part drawn at random. In the full data, 788 (4.7%) were called active. 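Calls rest on z-score classes alone; an extra cut-off of viability at most 70% of control was not applied to them.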 Further read-outs or replicates are left out here. No sequences are given here.

Spata21: combined z-score class = high cell count without drug only; viability z-score with doxorubicin = 1.57; viability z-score without drug = 2.53; call = inactive
Gstm1: combined z-score class = no change with or without drug; viability z-score with doxorubicin = 1.01; viability z-score without drug = 0.17; call = inactive
E2f1: combined z-score class = high cell count with doxorubicin only; viability z-score with doxorubicin = 2.25; viability z-score without drug = 1.01; call = inactive
Pknox1: combined z-score class = no change with or without drug; viability z-score with doxorubicin = 0.9; viability z-score without drug = 0.67; call = inactive
Pabpc4: combined z-score class = no change with or without drug; viability z-score with doxorubicin = -0.11; viability z-score without drug = -0.17; call = inactive
Cdk6: combined z-score class = no change with or without drug; viability z-score with doxorubicin = 0.67; viability z-score without drug = -0.84; call = inactive
Adamts19: combined z-score class = no change with or without drug; viability z-score with doxorubicin = -0.9; viability z-score without drug = -0.17; call = inactive

2 entries from above, sorted by “viability z-score without drug”, descending:
E2f1: combined z-score class = high cell count with doxorubicin only; viability z-score with doxorubicin = 2.25; viability z-score without drug = 1.01; call = inactive
Pknox1: combined z-score class = no change with or without drug; viability z-score with doxorubicin = 0.9; viability z-score without drug = 0.67; call = inactive

The results go on.
Col3a1: combined z-score class = no change with or without drug; viability z-score with doxorubicin = 0.22; viability z-score without drug = 0.17; call = inactive
Arpc5: combined z-score class = no change with or without drug; viability z-score with doxorubicin = -0.45; viability z-score without drug = -1.18; call = inactive
Or12e8: combined z-score class = high cell count without drug only; viability z-score with doxorubicin = 0; viability z-score without drug = 3.54; call = inactive
Josd2: combined z-score class = no change with or without drug; viability z-score with doxorubicin = 1.57; viability z-score without drug = 1.85; call = inactive
Defb8: combined z-score class = no change with or without drug; viability z-score with doxorubicin = 1.24; viability z-score without drug = 0.67; call = inactive
